Data reported in US20100056441A1, “Method for Inhibiting Angiogenesis” (priority 2006, published 2010).
At least one peptide structure holds a part that was inferred or is arguable (an end, a ring closure or a residue). Non-standard residues stand in square brackets, D forms with d. Residues, ends and D or L forms follow the SMILES beside them.

Tests used:
[1] = system: p53 protein; assay: Western blot HepG2, p53; type: cell-based, human; conditions: HepG2, 24 hours of treatment
[2] = system: nucleophosmin (NPM/B23) protein; assay: Western blot of liver tumor extracts, nucleophosmin; type: in vivo; conditions: treated mouse tumors
[3] = system: p53 deficient Hep3B cells; assay: TUNEL apoptosis assay, Hep3B; type: cell-based, human; conditions: 25 μM, 24 hours
[4] = system: HCC cells of ARF -/- Rosa 26 FoxM1b TG mice; assay: Apoptosis of HCC in ARF -/- Rosa26 FoxM1b TG mice (H&E, TUNEL); type: in vivo, mouse; conditions: 4 weeks
Method: In order to determine the effective concentration of dose of the ARF peptide for efficient liver delivery, mice were subjected to IP injection of either 0.1, 1, 5 or 10 mg/Kg body weight of TMR fluorescently tagged WT ARF 26-44 peptide, and were sacrificed 24 hours later, after which their livers were dissected, formalin fixed and paraffin embedded. Liver sections were treated with Xylene to remove paraffin wax and then examined by fluorescent microscopy for red peptide fluorescence. This dose response curve determined that IP injection of either equal or greater than 5 mg/Kg body weight of TMR-fluorescently labeled WT ARF 26-44 peptide was detectable in cytoplasm and nucleolus of hepatocytes and in hepatic mesenchymal cells at 24 hours after injection (FIG. 4G). Based on these studies, hepatic tumors were induced in Foxm1 f1/f1 mice by 32 weeks of DEN/PB exposure and then they were subjected to daily IP injections of 5 mg/Kg body weight of the cell penetrating WT ARF 26-44 peptide or Mutant ARF 37-44 peptide for 4 weeks and with WT ARF 26-44 peptide for 8 weeks (FIG. 4A). After 33 weeks of DEN/PB treatment, ARF −/− Rosa26-FoxM1b TG mice were subjected to daily IP injections of 5 mg/Kg body weight of the cell penetrating WT ARF 26-44 peptide or Mutant ARF 37-44 peptide for 4 weeks. Liver tumor bearing mice were also administered sterile PBS as controls.
To measure apoptosis in mouse livers we used the Terminal Deoxynucleotidyl Transferase-mediated dUTP-biotin Nick End Labeling (TUNEL) assay on liver sections using the ApoTag Fluorescein in situ apoptosis detection kit from Intergen (Purchase, N.Y.) according to the manufacturer's recommendations. The mean number (±SD) of TUNEL- or DAPI-positive hepatocyte nuclei was calculated per 1000 cells or 200× field by counting the number of positive hepatocyte nuclei using five different 200× fields of liver tumor sections from male mice at the indicated times of DEN/PB exposure. […]

[5] = system: HepG2 cells; assay: HepG2 growth curve (viable cell counts); type: cell-based, human; conditions: 50 μM peptide, 1, 2 or 3 days; 2×10^5 cells plated
[6] = system: survivin; assay: Western blot HepG2, survivin; type: cell-based, human; conditions: HepG2, compared to controls

How did the p53 protein levels [1] turn out when `CC(C)C[C@H](NC(=O)[C@H](C)NC(=O)[C@H](CS)NC(=O)[C@H](CO)NC(=O)[C@H](C)NC(=O)[C@@H](NC(=O)[C@H](CCCNC(=N)N)NC(=O)[C@@H]1CCCN1C(=O)[C@H](CCCNC(=N)N)NC(=O)[C@H](CCCNC(=N)N)NC(=O)[C@H](CO)NC(=O)[C@H](CCCNC(=N)N)NC(=O)[C@@H](NC(=O)[C@H](Cc1ccccc1)NC(=O)[C@H](CCCCN)NC(=O)[C@@H](CCCNC(=N)N)NC(=O)[C@@H](CCCNC(=N)N)NC(=O)[C@@H](CCCNC(=N)N)NC(=O)[C@@H](CCCNC(=N)N)NC(=O)[C@@H](CCCNC(=N)N)NC(=O)[C@@H](CCCNC(=N)N)NC(=O)[C@@H](CCCNC(=N)N)NC(=O)[C@@H](CCCNC(=N)N)NC(=O)[C@H](N)CCCNC(=N)N)C(C)C)[C@@H](C)O)C(=O)N[C@@H](C)C(=O)N[C@@H](Cc1ccccc1)C(=O)N[C@H](C(=O)N[C@@H](CC(N)=O)C(=O)O)C(C)C` [WT ARF 26-44 peptide, rrrrrrrrrKFVRSRRPRTASCALAFVN] (H-[dR][dR][dR][dR][dR][dR][dR][dR][dR]KFVRSRRPRTASCALAFVN-OH; N-terminus and C-terminus assumed) was run?
Its p53 protein levels is “unaltered”.

And the “levels of nucleophosmin (NPM/B23) protein (Western blot)” value [2]?
Its value is “did not significantly alter”.

What about the “apoptosis (TUNEL)” value [3] of the same compound?
Its value is 50%.

What about the “increase in apoptosis of HCC cells (TUNEL)” value [4] of the same compound?
The value was 42%.

What about the “growth of HepG2 cells (viable cell number)” value [5] of the same compound?
Its value is “able to sustain the number of cells initially plated”.

What about the “reduction in levels of survivin protein” value [6] of the same compound?
Its value is 50%.
